These are yes or no findings as the source states them, for the method shown. In cells and extracts the contact can be indirect.

Protein sequences, listed by entry. Tags and fused reporters are not part of them. Lines headed by an entry give the natural chain unless they say otherwise; changes in a name come on top.
UniProt P17301: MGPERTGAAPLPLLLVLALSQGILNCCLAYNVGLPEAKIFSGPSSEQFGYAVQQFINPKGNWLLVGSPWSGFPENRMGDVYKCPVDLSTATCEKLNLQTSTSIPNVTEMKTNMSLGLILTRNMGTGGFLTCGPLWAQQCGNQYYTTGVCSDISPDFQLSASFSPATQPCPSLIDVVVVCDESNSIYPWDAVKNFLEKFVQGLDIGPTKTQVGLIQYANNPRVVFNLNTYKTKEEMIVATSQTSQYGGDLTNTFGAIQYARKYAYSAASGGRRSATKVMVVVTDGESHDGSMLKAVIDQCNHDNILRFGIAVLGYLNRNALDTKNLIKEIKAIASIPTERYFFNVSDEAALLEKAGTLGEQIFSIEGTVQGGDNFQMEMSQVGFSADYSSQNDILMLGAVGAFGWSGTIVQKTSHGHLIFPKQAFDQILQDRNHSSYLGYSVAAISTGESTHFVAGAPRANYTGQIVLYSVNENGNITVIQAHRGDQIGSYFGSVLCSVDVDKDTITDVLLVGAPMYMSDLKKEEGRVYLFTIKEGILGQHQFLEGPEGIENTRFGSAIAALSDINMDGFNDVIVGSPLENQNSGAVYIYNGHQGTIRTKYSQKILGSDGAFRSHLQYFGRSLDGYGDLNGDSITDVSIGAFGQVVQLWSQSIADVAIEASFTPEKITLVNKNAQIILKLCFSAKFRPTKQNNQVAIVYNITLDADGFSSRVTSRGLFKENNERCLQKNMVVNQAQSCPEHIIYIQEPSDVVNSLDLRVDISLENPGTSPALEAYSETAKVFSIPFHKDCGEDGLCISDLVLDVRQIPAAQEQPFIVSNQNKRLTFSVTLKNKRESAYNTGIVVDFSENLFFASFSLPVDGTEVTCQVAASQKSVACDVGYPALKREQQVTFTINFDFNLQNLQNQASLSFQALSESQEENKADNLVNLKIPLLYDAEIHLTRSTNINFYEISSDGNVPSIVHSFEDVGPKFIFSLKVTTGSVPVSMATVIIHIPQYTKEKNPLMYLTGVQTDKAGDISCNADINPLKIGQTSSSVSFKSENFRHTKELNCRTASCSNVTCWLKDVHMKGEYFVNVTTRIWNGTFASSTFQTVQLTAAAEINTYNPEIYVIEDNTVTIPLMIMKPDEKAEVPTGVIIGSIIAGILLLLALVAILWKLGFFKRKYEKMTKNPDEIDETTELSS
UniProt P05556: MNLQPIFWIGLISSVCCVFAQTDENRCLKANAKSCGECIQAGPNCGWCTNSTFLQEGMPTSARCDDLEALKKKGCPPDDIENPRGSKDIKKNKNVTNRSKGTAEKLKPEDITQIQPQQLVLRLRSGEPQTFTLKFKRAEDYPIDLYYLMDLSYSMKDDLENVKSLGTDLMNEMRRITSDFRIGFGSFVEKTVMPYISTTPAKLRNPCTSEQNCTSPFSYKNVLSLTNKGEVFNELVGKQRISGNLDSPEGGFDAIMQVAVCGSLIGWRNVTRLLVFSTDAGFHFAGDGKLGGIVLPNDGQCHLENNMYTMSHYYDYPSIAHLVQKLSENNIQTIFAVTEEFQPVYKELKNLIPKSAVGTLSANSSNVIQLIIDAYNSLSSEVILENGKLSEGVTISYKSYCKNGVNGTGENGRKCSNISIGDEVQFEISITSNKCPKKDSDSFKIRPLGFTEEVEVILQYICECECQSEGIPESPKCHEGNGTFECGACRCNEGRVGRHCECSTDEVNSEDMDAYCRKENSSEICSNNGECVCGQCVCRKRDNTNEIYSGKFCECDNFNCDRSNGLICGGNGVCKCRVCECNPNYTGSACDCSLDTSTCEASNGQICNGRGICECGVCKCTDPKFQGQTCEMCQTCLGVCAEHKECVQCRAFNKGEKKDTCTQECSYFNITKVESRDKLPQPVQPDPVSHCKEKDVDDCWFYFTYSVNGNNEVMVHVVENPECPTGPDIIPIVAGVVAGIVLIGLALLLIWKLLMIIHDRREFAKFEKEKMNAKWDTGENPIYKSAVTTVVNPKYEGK

The assay concerns the target integrin α2β1 (human (endogenous in CCA cells)) (UniProt P17301+P05556). Briefly: co-IP; CCA cells lysed in ice-cold IP lysis buffer with protease and phosphatase inhibitors; Dynabeads protein G IP kit; precipitates analysed by western blot. On the technique in general: Immunoblotting shows a protein as a band on a membrane.

B1: Tetraspanin 1 (TSPAN1) (protein, UniProt O60635 1-241)
chain: MQCFSFIKTMMILFNLLIFLCGAALLAVGIWVSIDGASFLKIFGPLSSSAMQFVNVGYFLIAAGVVVFALGFLGCYGAKTESKCALVTFFFILLLIFIAEVAAAVVALVYTTMAEHFLTLLVVPAIKKDYGSQEDFTQVWNTTMKGLKCCGFTNYTDFEDSPYFKENSAFPPFCCNDNVTNTANETCTKQKAHDQKVEGCFNQLLYDIRTNAVTVGGVAAGIGGLELAAMIVSMYLYCNLQ
In the case of B1, the binding entry was “no binding”.
